Measured values from the supplement of paper PMC4371806.
Whole data set: some 2,300 compounds, median “plate-normalized OD600 growth (mean of duplicates)” near 0.29, cut for the lowest 2% near 0.22. The list shows a part of the results.

Test system: Escherichia coli BW25113
Experiment: plate-normalized OD600 growth (mean of duplicates) (OD600 (normalized)); higher = more growth (less inhibition)
Settings: 10 µM
Method: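 E. coli BW25113 in LB (100 µl, 96-well, no shaking) was exposed to 10 µM of each compound from a ~30,000-member library and grown at 37°C for 24 h or 15°C for 48 h, in duplicate. Growth was read as OD600 and the duplicate ODs were normalized across screening plates to correct plate-to-plate variation. Hits were >3σ below the mean OD600 at 15°C and <2σ below the mean at 37°C.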

SMILES | plate-normalized OD600 growth (temperature: 15°C, 48 h) | plate-normalized OD600 growth (temperature: 37°C, 24 h)
N#CCc1nnc2n1CCCCC2 | 0.235 | 0.604
Nc1cccc(C(=O)Nc2nccs2)c1 | 0.26 | 0.627
COC(=O)c1ccc(S(=O)(=O)N2CCC(C(N)=O)CC2)n1C | 0.224 | 0.623
O=C(OCCCC(F)(F)C(F)(F)F)c1ccccc1C(=O)n1nnc2ccccc21 | 0.218 | 0.618
CCc1ccc(O)c(N=Cc2ccc(Cl)cc2Cl)c1 | 0.236 | 0.611
O=C1Nc2ccccc2/C1=N/N1C(=O)N/C(=C\c2ccc(Cl)cc2Cl)C1=O | 0.255 | 0.634
O=C(NCCCn1ccnc1)c1cc2nc(-c3ccco3)cc(C(F)(F)Cl)n2n1 | 0.243 | 0.621
CCOC(=O)c1ccc(Oc2ncc(C(F)(F)F)cc2Cl)cc1 | 0.245 | 0.602
COc1cc(/C=N\Nc2nncn2N)ccc1OC(C)=O | 0.241 | 0.607
Cc1ccc2c(c1)/C(=C/c1ccccc1)c1cnc(/C=C/c3ccccc3)cc1-2 | 0.274 | 0.61
O=C1CCc2cccc3cccc1c23 | 0.235 | 0.604
O=C1CCCC2=C1C(c1cccnc1)Nc1ccc3ccccc3c12 (centres undefined) | 0.244 | 0.61
c1cc2c(cc1N=C1SCC3CCCCN13)OCO2 (centres undefined) | 0.25 | 0.605
NC(=S)N/N=C\c1ccccc1 | 0.239 | 0.608
O=C1CNC(=S)N1CCc1ccccn1 | 0.25 | 0.659
CC[C@@H]1[C@H]2CCCCN3[C@H]2[C@H](C[C@H]3[C@@H]2C[C@H](C)C(=O)O2)[C@@H]2[C@H]1OC(=O)[C@H]2C | 0.238 | 0.609
Cc1ccc(NS(=O)(=O)c2ccc3[nH]c(=O)oc3c2)cc1 | 0.238 | 0.648
O=[N+]([O-])c1ccc(-c2ncn[nH]2)cc1 | 0.209 | 0.607
O=C1c2ccccc2C(=O)N1CN(CCSc1ccccc1)CN1C(=O)c2ccccc2C1=O | 0.241 | 0.596
CCOc1cc(-c2c(C#N)c(N)nc(-c3ccccc3)c2CC)ccc1O | 0.251 | 0.649
CCCCN1C(=O)C2C(CC)NC3(C(=O)N(Cc4ccccc4Cl)c4ccccc43)C2C1=O (centres undefined) | 0.241 | 0.623
OC1c2cc(Br)cc(Br)c2OCC1(CN1CCCCC1)CN1CCCCC1 (centres undefined) | 0.26 | 0.647
O=C(COC(=O)c1ccccc1-c1ccccc1)c1ccc(Br)cc1 | 0.249 | 0.608
NNC(=O)Cn1c2ccccc2n2cc(-c3ccccc3)cc12 | 0.229 | 0.608
O=C1c2ccccc2-c2nc3ncnn3c(-c3ccccc3Cl)c21 | 0.254 | 0.612

SMILES | plate-normalized OD600 growth (temperature: 15°C, 48 h) | plate-normalized OD600 growth (temperature: 37°C, 24 h)
CCN1CCN(CCC(=O)Nc2ccccc2)CC1 | 0.228 | 0.624
CC(C)(C)S(=O)(=O)/C(C#N)=C/N1CCCCC1 | 0.267 | 0.62
Nc1nc2ccc(N3CCOCC3)cc2s1 | 0.245 | 0.61
COc1ccc([C@H]2[C@H](C(=O)C(C)(C)C)N3C=Cc4ccccc4[C@H]3C2(C#N)C#N)cc1 | 0.25 | 0.63
OCCCc1cccc(C(F)(F)F)c1 | 0.242 | 0.586
CC(=O)C1=C(Nc2ccc(C)cc2)CC(C)(O)C(C(C)=O)C1c1ccc(F)cc1 (centres undefined) | 0.208 | 0.598
O=C(COc1ccccc1[N+](=O)[O-])Nc1ccccn1 | 0.24 | 0.619
C=C(C)C(=O)Oc1c2ccccc2cc2ccccc12 | 0.269 | 0.62
CC(=O)OC1CC[C@]2(C)C3=C(C(O)C[C@H]2C1(C)C)[C@]1(C)CC[C@H]([C@H](C)CCCC(C)C)[C@@]1(C)CC3=O (some centres undefined) | 0.265 | 0.589
O=C(O)CCCC(=O)Nc1ccccn1 | 0.247 | 0.614
CCCCCSN1C(=O)c2ccccc2C1=O | 0.262 | 0.637
c1ccc([S+]2c3ccccc3Nc3ccccc32)cc1 | 0.237 | 0.612
C=CCn1cc(Cc2cn(CC=C)nc2C)c(C)n1 | 0.248 | 0.616
COc1ccc(OC)c(CNC(=O)Cc2cccs2)c1 | 0.247 | 0.616
COc1c(N)cccc1F | 0.244 | 0.627
Cc1cc(C)c(C(=O)CSc2nc3ccccc3[nH]2)c(C)c1 | 0.213 | 0.626
N#Cc1cc(C#N)c(SCC(=O)N(c2ccccc2)c2ccccc2)nc1N | 0.243 | 0.615
N/C(=N\OC(=O)C12CC3CC(CC(C3)C1)C2)c1ccccc1 | 0.26 | 0.614
O=[N+]([O-])c1ccc(SC2=NCCN2)c(Cl)c1 | 0.249 | 0.607
O=C1CC(NCc2ccco2)C(=O)N1c1ccc(OC(F)(F)Cl)cc1 (centres undefined) | 0.268 | 0.642
Cc1ccc(Sc2c(-c3ccccc3)nc3ncccn23)cc1 | 0.254 | 0.647
O=C1c2ccccc2C(=O)c2c(NCCc3ccc(O)cc3)ccc(NCCc3ccc(O)cc3)c21 | 0.24 | 0.646
CN(C)c1ccc(/C=C2\SC(=S)N(CC(=O)O)C2=O)cc1Br | 0.259 | 0.613
COCc1cc(C)nc2sc(C(=O)OC)c(N)c12 | 0.243 | 0.626
CC(Oc1ccccc1)C(=O)Nc1ccc(Cl)cc1 (centres undefined) | 0.222 | 0.64

SMILES | plate-normalized OD600 growth (temperature: 15°C, 48 h) | plate-normalized OD600 growth (temperature: 37°C, 24 h)
CN1C(=O)N(C)C2(c3ccccc3)Nn3c(s/c(=C/c4ccc([N+](=O)[O-])cc4)c3=O)=NC12c1ccccc1 (centres undefined) | 0.243 | 0.609
Cc1cccc(C(=O)OCC(=O)c2ccccc2)c1O | 0.25 | 0.611
Cc1ccc(NS(=O)(=O)c2ccc(N3C(=O)c4ccccc4C3=O)cc2)cc1C | 0.25 | 0.629
FC(F)(F)c1cccc(CSc2n[nH]c(=S)s2)c1 | 0.256 | 0.622
N#CCCN(CC1CCCO1)C(=S)Nc1cc(C(F)(F)F)cc(C(F)(F)F)c1 (centres undefined) | 0.24 | 0.629
Cc1ccccc1COC(=O)c1ccc(-c2nnn(Cc3ccccc3C)n2)cc1 | 0.244 | 0.611
CCc1c(C)nn2cn[n+](Cc3ccccc3)c2c1[O-] | 0.268 | 0.629
COc1cccc(Nc2ncnc3scc(-c4ccc(Cl)cc4)c23)c1 | 0.229 | 0.625
N/C(=N\OC(=O)c1ccno1)c1ccc(C(F)(F)F)cc1 | 0.253 | 0.612
O=C1CSC(c2ccc(C(F)(F)F)cc2)N1c1ccc(S(=O)(=O)Nc2ncccn2)cc1 (centres undefined) | 0.253 | 0.638
N/C(=N/OC(=O)C(Cl)Cl)c1cccc(Cl)c1Cl | 0.233 | 0.601
O=c1[nH]c(=O)n(C2OC(CO)C(O)C2O)cc1F (centres undefined) | 0.243 | 0.618
COc1ccc(OC)c(C(=O)c2cc(OC)c(OC)c(OC)c2)c1 | 0.26 | 0.656
CCOc1cc(/C=N/NC(=O)CNC(=O)C(c2ccccc2)c2ccccc2)ccc1OC(=O)c1ccccc1 | 0.245 | 0.635
COc1cc(S(=O)(=O)N2CCN(c3c(C)cccc3C)CC2)c(OC)cc1Cl | 0.253 | 0.617
CCOC(=O)c1ccc(N2C(=O)CC(N3CCN(Cc4ccc5c(c4)OCO5)CC3)C2=O)cc1 (centres undefined) | 0.242 | 0.617
CC(=O)Nc1cc(-c2ccc(Br)cc2)nn1Cc1ccc(Cl)cc1 | 0.254 | 0.625
N#Cc1c(C2CCCCC2)nc(Sc2ccc(C(F)(F)F)cc2[N+](=O)[O-])[nH]c1=O | 0.258 | 0.619
Cc1c(C(=O)NN)nn(-c2ccccc2)c(=O)c1C#N | 0.242 | 0.624
CN(C)c1ccc(/C=N/NC(=O)c2nnn(-c3nonc3N)c2CSc2nc3ccccc3s2)cc1 | 0.249 | 0.613
Cc1ccc2cc(NC(=O)c3ccco3)ccc2n1 | 0.235 | 0.601
CC1(C)Cc2ccccc2C(CSc2nnc3c(n2)[nH]c2ccccc23)=N1 | 0.245 | 0.608
FC(F)(F)c1ccc(Cl)c(NC(=S)NN=C2CCCCCC2)c1 | 0.245 | 0.624
C/C(Cn1cnc([N+](=O)[O-])n1)=N\NC(=O)c1cccc(C)c1 | 0.249 | 0.621
COC(=O)c1cc(Cl)c(NC(=O)c2ccco2)cc1OC | 0.252 | 0.595

SMILES | plate-normalized OD600 growth (temperature: 15°C, 48 h) | plate-normalized OD600 growth (temperature: 37°C, 24 h)
COc1ccc(Nc2nc(Cl)nc(NCCC3=CCCCC3)n2)cc1 | 0.257 | 0.602
NC(N)=NC(N)=Nc1ccc2c(c1)OCCO2 | 0.252 | 0.624
COc1ccc(N=Cc2ccc(-c3ccc(F)cc3)o2)cc1 | 0.244 | 0.616
Cc1ccc(NC(=O)C2CCC(=O)N2C(=O)OCc2ccccc2)cc1 (centres undefined) | 0.243 | 0.611
O=C1/C(=C\c2ccc(Cl)cc2Cl)N=C(c2ccccc2)N1C1CC1 | 0.241 | 0.577
N#CC1COc2ccccc2O1 (centres undefined) | 0.259 | 0.649
O=C1OC2COC(=O)C2C=C1NC(=O)c1ccc(Cl)cc1 (centres undefined) | 0.25 | 0.613
O=C1C(Cl)=C(Oc2cc(Cl)c(Cl)cc2Cl)C(=O)c2ccccc21 | 0.211 | 0.613
CCOC(=O)/C(C#N)=C/Nc1ccc2c(c1)OCO2 | 0.264 | 0.649
CCCN(CCNN1C(=O)/C(=C/c2ccc(O)cc2)N=C1c1ccccc1)c1c(Cl)cc(C(F)(F)F)cc1Cl | 0.238 | 0.62
O=C(NCCSCc1ccco1)c1ccc(Cl)cc1 | 0.25 | 0.605
CCOC(=O)c1ccc2nc(NC(=O)CSc3nc(C)cc(C)n3)sc2c1 | 0.254 | 0.613
Cc1ccc(Cl)cc1NC(=S)N(CCC#N)/N=C\c1ccc2c(c1)OCO2 | 0.227 | 0.611
CCn1nc(C)cc1C(=O)O | 0.259 | 0.636
Cc1ccc2[nH]c(C)c(CCNS(=O)(=O)c3ccc(C)c(C)c3C)c2c1 | 0.219 | 0.596
COc1ccc(N2C(=O)CC(NCc3ccco3)C2=O)cc1 (centres undefined) | 0.252 | 0.614
Cn1nnnc1SCCNS(=O)(=O)c1ccccc1 | 0.247 | 0.613
Cc1nc(SCC(=O)Nc2nc(-c3ccc(Br)cc3)cs2)n[nH]1 | 0.247 | 0.607
Clc1nc2ccc(Br)cc2cc1C1CC(c2ccc(Br)cc2)=NN1 (centres undefined) | 0.26 | 0.615
O=C(O)c1ccc(Br)c(NC(=O)C2C3C=CC(C3)C2C(=O)O)c1 (centres undefined) | 0.248 | 0.604
COc1cc2c(cc1OC)C(=NCCCCCC(=O)O)NC(C)(C)C2 | 0.246 | 0.62
C=CCn1c(C(CC)CC(C)(C)O)n[nH]c1=S (centres undefined) | 0.253 | 0.63

Among those listed so far, two have a tert-butyl group.
SMILES | plate-normalized OD600 growth (temperature: 15°C, 48 h) | plate-normalized OD600 growth (temperature: 37°C, 24 h)
CC(C)(C)S(=O)(=O)/C(C#N)=C/N1CCCCC1 | 0.267 | 0.62
COc1ccc([C@H]2[C@H](C(=O)C(C)(C)C)N3C=Cc4ccccc4[C@H]3C2(C#N)C#N)cc1 | 0.25 | 0.63
